Results are given in words; binding and its absence hold for the method and conditions named. In cells and extracts the contact can be indirect. A yes stands for co-enrichment or nearness to the bait. Other partners may have been found.
Molecular target: T1, MDC1-[p]T752 biotinylated phosphopeptide (Biotin-SGS-…[p]TQPFCL-NH2) (human)
T1 sequence (peptide, biotin on the N-terminus; phosphothreonine at T752; C-terminal amide): SGSLDEPWEVLATQPFCL
Assay: affinity purification with mass spectrometry; biotinylated peptide on streptavidin Dynabeads, incubated with HeLa nuclear extract 4 h at 4°C; on-bead trypsin digestion, LC-MS/MS; two independent experiments; only the target purified

B1: Pellino 2 (endogenous, HeLa nuclear extract, identified by mass spectrometry) (protein, UniProt Q9HAT8 1-420)
chain: MFSPGQEEHCAPNKEPVKYGELVVLGYNGALPNGDRGRRKSRFALYKRPKANGVKPSTVHVISTPQASKAISCKGQHSISYTLSRNQTVVVEYTHDKDTDMFQVGRSTESPIDFVVTDTISGSQNTDEAQITQSTISRFACRIVCDRNEPYTARIFAAGFDSSKNIFLGEKAAKWKNPDGHMDGLTTNGVLVMHPRGGFTEESQPGVWREISVCGDVYTLRETRSAQQRGKLVESETNVLQDGSLIDLCGATLLWRTADGLFHTPTQKHIEALRQEINAARPQCPVGLNTLAFPSINRKEVVEEKQPWAYLSCGHVHGYHNWGHRSDTEANERECPMCRTVGPYVPLWLGCEAGFYVDAGPPTHAFTPCGHVCSEKSAKYWSQIPLPHGTHAFHAACPFCATQLVGEQNCIKLIFQGPID
In the case of B1, the binding is reported as “binds”.

— publication PMC11884936, “MDC1 mediates Pellino recruitment to sites of DNA double-strand breaks” (Life Science Alliance, 2025)
